Laboratory results reported in PubChem BioAssay AID248 (DTP/NCI, 2004).
The list shows only some results of the screen, not a fair sample: it gathers tests that were run many times, whatever their T/C, doses with no T/C, and many T/C values between a quarter and a half above the control. Other doses and runs of a compound stand elsewhere. T/C gives the treated animals as a percentage of the vehicle group. Some doses have a count of surviving animals in place of a T/C: the source holds a T/C of zero for them, seemingly a mark for toxic or unscored doses. Some doses without a T/C left all or most animals alive at the check, yet need not have been tolerated: the source hardly ever lists a survival T/C far under the control, and the zero likely stands for such cases as well. Counts of survivors are from the toxicity check (mostly the fifth day) where no day follows; animals may have died later. Schedules are NCI's codes, taken here to give the interval after Q, in days (D) or hours (H), and the number of doses after X. Some schedule codes hold Z or #, which are not explained here. For survival time, the PubChem record calls one and a half times the control and up active, and a quarter to a half above the control has no call in these data; cut-offs in other NCI protocols can differ. Some entries hold several experiments; their values stand side by side, smallest first. Some T/C values are followed by the survivors on the day toxicity was checked, most often the fifth; where none is given, no animal had died by that day.

Test system: L1210 leukemia ip in BDF1 mice, survival T/C
Assay: NCI In Vivo Anticancer Drug Screen. Data for tumor model L1210 Leukemia (intraperitoneal) in B6D2F1 (BDF1) mice
Conditions: T/C endpoint: mean survival time, higher T/C = longer survival
[1] = dose: 200.0 mg/kg/injection, schedule: Q01DX001 (ip), vehicle: saline

## C=CC(CN1CC1)OC(C)=O (stereo unspecified)
dose: 1.0 mg/kg/injection, schedule: Q01DX010 (oral), vehicle: saline
  T/C: 125 % of control
dose: 1.0 mg/kg/injection, schedule: Q03DX Z (ip), vehicle: saline
  T/C: 130 % of control
dose: 1.9 mg/kg/injection, schedule: Q01DX Z (ip), vehicle: olive oil, sesame oil, peanut oil
  survivor count: 6 of 6
dose: 1.9 mg/kg/injection, schedule: Q01DX Z (oral), vehicle: olive oil, sesame oil, peanut oil
  T/C: 139 % of control
dose: 2.0 mg/kg/injection, schedule: Q01DX010 (oral), vehicle: saline
  T/C: 146 % of control
dose: 2.0 mg/kg/injection, schedule: Q03DX Z (ip), vehicle: saline
  T/C: 146 % of control
dose: 2.0 mg/kg/injection, schedule: Q#A X Z (ip), vehicle: other
  T/C: 134 % of control [5 of 6 alive]
dose: 3.0 mg/kg/injection, schedule: Q#A X Z (ip), vehicle: other
  T/C: 139 % of control
dose: 3.6 mg/kg/injection, schedule: Q01DX Z (ip), vehicle: carboxymethylcellulose (CMC)
  T/C: 126 % of control
dose: 3.75 mg/kg/injection, schedule: Q01DX009 (ip), vehicle: saline
  T/C: 145 % of control
dose: 3.8 mg/kg/injection, schedule: Q01DX Z (oral), vehicle: olive oil, sesame oil, peanut oil
  T/C: 148 % of control
dose: 4.0 mg/kg/injection, schedule: Q01DX010 (oral), vehicle: saline
  survivor count: 6 of 6
dose: 4.0 mg/kg/injection, schedule: Q01DX Z (ip), vehicle: carboxymethylcellulose (CMC)
  T/C: 129 % of control
dose: 4.0 mg/kg/injection, schedule: Q01DX Z (ip), vehicle: other
  T/C: 137 % of control
dose: 4.0 mg/kg/injection, schedule: Q03DX Z (ip), vehicle: saline
  T/C: 126 % of control [5 of 6 alive]
dose: 4.95 mg/kg/injection, schedule: Q01DX Z (ip), vehicle: carboxymethylcellulose (CMC)
  T/C: 130 and 139 % of control
dose: 5.0 mg/kg/injection, schedule: Q01DX Z (oral), vehicle: saline
  T/C: 141 % of control
dose: 6.0 mg/kg/injection, schedule: Q01DX Z (ip), vehicle: other
  T/C: 142 % of control
dose: 6.0 mg/kg/injection, schedule: Q01DX Z (sc), vehicle: other
  T/C: 130 % of control
dose: 6.6 mg/kg/injection, schedule: Q01DX Z (ip), vehicle: carboxymethylcellulose (CMC)
  T/C: 145 % of control
dose: 7.5 mg/kg/injection, schedule: Q01DX Z (ip), vehicle: olive oil, sesame oil, peanut oil
  T/C: 147 % of control
dose: 7.6 mg/kg/injection, schedule: Q01DX Z (ip), vehicle: olive oil, sesame oil, peanut oil
  survivor count: 6 of 6
dose: 8.0 mg/kg/injection, schedule: Q01DX006 (iv), vehicle: saline
  survivor count: 5 of 6
dose: 8.0 mg/kg/injection, schedule: Q01DX010 (oral), vehicle: saline
  survivor count: 6 of 6
dose: 8.0 mg/kg/injection, schedule: Q02DX004 (im), vehicle: saline
  T/C: 144 % of control
dose: 8.0 mg/kg/injection, schedule: Q03DX Z (ip), vehicle: saline
  survivor count: 5 of 6
dose: 9.0 mg/kg/injection, schedule: Q01DX Z (sc), vehicle: other
  survivor count: 6 of 6
dose: 9.9 mg/kg/injection, schedule: Q01DX Z (ip), vehicle: carboxymethylcellulose (CMC)
  T/C: 128, 133, 146 % of control [9 of 10 alive]
dose: 15.0 mg/kg/injection, schedule: Q01DX Z (ip), vehicle: olive oil, sesame oil, peanut oil
  T/C: 135 % of control
dose: 15.0 mg/kg/injection, schedule: Q01DX Z (ip), vehicle: saline
  T/C: 130 % of control
dose: 15.0 mg/kg/injection, schedule: Q01DX Z (oral), vehicle: olive oil, sesame oil, peanut oil
  T/C: 136 % of control
dose: 15.0 mg/kg/injection, schedule: Q01DX Z (oral), vehicle: saline
  T/C: 145 % of control
dose: 15.1 mg/kg/injection, schedule: Q01DX Z (ip), vehicle: olive oil, sesame oil, peanut oil
  survivor count: 6 of 6
dose: 16.0 mg/kg/injection, schedule: Q01DX006 (iv), vehicle: saline
  survivor count: 6 of 6
dose: 16.0 mg/kg/injection, schedule: Q01DX010 (oral), vehicle: saline
  survivor count: 6 of 6
dose: 16.0 mg/kg/injection, schedule: Q02DX004 (im), vehicle: saline
  T/C: 134 % of control
dose: 16.0 mg/kg/injection, schedule: Q07DX Z (ip), vehicle: saline
  T/C: 126 and 148 % of control
dose: 16.75 mg/kg/injection, schedule: Q01DX001 (ip), vehicle: saline
  T/C: 145 % of control
dose: 24.75 mg/kg/injection, schedule: Q01DX Z (ip), vehicle: carboxymethylcellulose (CMC)
  survivor count: 9 of 10
dose: 25.0 mg/kg/injection, schedule: Q01DX001 (ip), vehicle: saline
  T/C: 127 and 128 % of control
dose: 30.0 mg/kg/injection, schedule: Q01DX009 (ip), vehicle: saline
  survivor count: 6 of 6
dose: 30.0 mg/kg/injection, schedule: Q01DX Z (ip), vehicle: carboxymethylcellulose (CMC)
  survivor count: 3 of 6
dose: 30.0 mg/kg/injection, schedule: Q01DX Z (ip), vehicle: saline
  survivor count: 5 of 6
dose: 30.0 mg/kg/injection, schedule: Q01DX Z (oral), vehicle: olive oil, sesame oil, peanut oil
  survivor count: 6 of 6
dose: 30.1 mg/kg/injection, schedule: Q01DX Z (ip), vehicle: olive oil, sesame oil, peanut oil
  survivor count: 0 of 6
dose: 30.1 mg/kg/injection, schedule: Q01DX Z (oral), vehicle: olive oil, sesame oil, peanut oil
  survivor count: 1 of 6
dose: 30.1 mg/kg/injection, schedule: Q01DX Z (oral), vehicle: other
  survivor count: 6 of 6
dose: 32.0 mg/kg/injection, schedule: Q01DX010 (oral), vehicle: saline
  survivor count: 0 of 6
dose: 42.0 mg/kg/injection, schedule: Q07DX Z (ip), vehicle: other
  survivor count: 5 of 6
dose: 63.0 mg/kg/injection, schedule: Q07DX Z (ip), vehicle: other
  survivor count: 5 of 6
dose: 64.0 mg/kg/injection, schedule: Q02DX004 (im), vehicle: saline
  survivor count: 4 of 6
dose: 64.0 mg/kg/injection, schedule: Q07DX Z (ip), vehicle: saline
  survivor count: 2 of 6
dose: 100.0 mg/kg/injection, schedule: Q01DX001 (ip), vehicle: saline
  survivor count: 4 of 6
dose: 120.0 mg/kg/injection, schedule: Q01DX Z (ip), vehicle: saline
  survivor count: 6 of 6
dose: 120.0 mg/kg/injection, schedule: Q01DX Z (oral), vehicle: saline
  T/C: 130 % of control
[1]
  survivor count: 0 of 6

## CCc1c(N)nc(N)nc1Nc1ccc(Cl)c(Cl)c1
dose: 200.0 mg/kg/injection, schedule: Q01DX Z (ip), vehicle: methylcellulose (MC)
  survivor count: 6 of 6

## O=C(Nc1ccc(Br)cc1)Oc1ccc(-c2ccccc2)cc1
dose: 100.0 mg/kg/injection, schedule: Q01DX009 (ip), vehicle: Klucel (hydroxypropylcellulose) (HPC)
  survivor count: 6 of 6
dose: 200.0 mg/kg/injection, schedule: Q01DX009 (ip), vehicle: Klucel (hydroxypropylcellulose) (HPC)
  survivor count: 6 of 6

## NC(=O)Oc1c(Cl)cc(Cl)c(Cl)c1[N+](=O)[O-]
dose: 100.0 mg/kg/injection, schedule: Q04DX002 (ip), vehicle: Klucel (hydroxypropylcellulose) (HPC)
  survivor count: 1 of 3
dose: 200.0 mg/kg/injection, schedule: Q04DX002 (ip), vehicle: Klucel (hydroxypropylcellulose) (HPC)
  survivor count: 0 of 3
dose: 400.0 mg/kg/injection, schedule: Q04DX002 (ip), vehicle: Klucel (hydroxypropylcellulose) (HPC)
  survivor count: 0 of 3

## CCCCCc1csc(-c2ccc(N(C)C)cc2)[n+]1C
dose: 10.0 mg/kg/injection, schedule: Q01DX009 (ip), vehicle: Klucel (hydroxypropylcellulose) (HPC)
  survivor count: 0 of 6
dose: 20.0 mg/kg/injection, schedule: Q01DX009 (ip), vehicle: Klucel (hydroxypropylcellulose) (HPC)
  survivor count: 0 of 6
dose: 40.0 mg/kg/injection, schedule: Q01DX009 (ip), vehicle: Klucel (hydroxypropylcellulose) (HPC)
  survivor count: 0 of 6
dose: 75.0 mg/kg/injection, schedule: Q01DX009 (ip), vehicle: Klucel (hydroxypropylcellulose) (HPC)
  survivor count: 6 of 6
dose: 150.0 mg/kg/injection, schedule: Q01DX009 (ip), vehicle: Klucel (hydroxypropylcellulose) (HPC)
  survivor count: 0 of 6
dose: 300.0 mg/kg/injection, schedule: Q01DX009 (ip), vehicle: Klucel (hydroxypropylcellulose) (HPC)
  survivor count: 0 of 6

## CC(NN)c1ccccc1 (stereo unspecified)
[1]
  survivor count: 2 of 4
dose: 400.0 mg/kg/injection, schedule: Q01DX001 (ip), vehicle: saline
  survivor count: 0 of 4

## CN1CN(c2ccccc2)C2(CCN(C(=O)/C=C/c3ccc(F)cc3)CC2)C1=O
dose: 300.0 mg/kg/injection, schedule: Q04DX003 (ip), vehicle: Klucel (hydroxypropylcellulose) (HPC)
  survivor count: 5 of 6
